Measured values: PubChem BioAssay AID2685 (National Center for Advancing Translational Sciences (NCATS), 2010)
The other results are listed elsewhere or left out. These are further read-outs of the screen, such as a control signal, another cell line or another target. No call is given for them. The list favours compounds with an active or inconclusive main result. Potencies come from curve fits of mixed quality, noted in brackets.

Assay: qHTS Assay for Lipid Storage Modulators in Drosophila S3 Cells;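 on cell number change: cells counted by Cell Tracker Red CMTPX staining in the red channel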
Conditions: BODIPY lipid droplet fluorescence, 18-24 h; for cell number change: measured here: cell count max response, cells fed with added oleic acid
Outline: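 Drosophila S3 cells loaded with oleic acid (400 uM, as added) and compounds at several concentrations; lipid droplets imaged by 488-nm laser-scanning cytometry, 500–530 nm intensity and object ratio to cell channel. Percent activity normalized to 20 uM Triacsin C.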

[1] = measured here: lipid fluorescence (Fed channel) AC50, cells fed with added oleic acid
[2] = measured here: cell number channel AC50, cells fed with added oleic acid

SMILES: CC(C)N(C(C)C)S(=O)(=O)c1ccc(N2CCc3ccccc3C2)nc1
- cell number change: -11.1%
- AC50 [1]: 29.1 µM [rising, single point]

SMILES: COc1ccc(CNC(=O)COC(=O)CO/N=C(\C)c2ccc3c(c2)OCO3)cc1
- cell number change: -14.3%
- AC50 [1]: 0.651 µM [falling, partial curve, poor fit]

SMILES: Nc1c(C(=O)NC2CCCCC2)c2nc3ccccc3nc2n1/N=C/c1ccco1
- cell number change: -15.4%
- AC50 [1]: 16.4 µM [rising, single point]

SMILES: CC(C)CN1C(=O)CC(Sc2ccccc2C(=O)O)C1=O (configuration not stated)
- cell number change: -19.4%
- AC50 [1]: 1.84 µM [falling, full curve]

SMILES: Cn1cnc(S(=O)(=O)N2CCN(C(c3ccccc3)c3ccccc3)CC2)c1
- cell number change: -6.12%
- AC50 [1]: 0.0164 µM [falling, full curve]

SMILES: COc1ccccc1-n1c(=O)oc2ccc(Cl)cc2c1=O
- cell number change: 10.1%
- AC50 [1]: 29.1 µM [falling, partial curve]

SMILES: CC(=O)c1ccc(NC(=O)C(C)OC(=O)CCN=C2NS(=O)(=O)c3ccccc32)cc1 (configuration not stated)
- cell number change: -7.36%
- AC50 [1]: 29.1 µM [rising, single point]

SMILES: N#Cc1c(N)nc(SCC(=O)NCCc2ccccc2)c(C#N)c1-c1cccs1
- cell number change: -25.6%
- AC50 [1]: 18.4 µM [falling, single point]

SMILES: O=C(O)/C(=C\c1ccc(-c2ccccc2[N+](=O)[O-])o1)c1ccccc1
- cell number change: 24.9%

SMILES: COc1ccc(CN2CSC(=S)N(Cc3ccccc3)C2)cc1
- cell number change: 0.824%
- AC50 [1]: 6.51 µM [rising, single point]

SMILES: CCN(CC)c1ccc(NC(=O)c2cnc3ccccn3c2=O)c(C)c1
- cell number change: 4.38%

SMILES: Cc1ccc(-c2nn(-c3ccccc3)cc2/C=N/NC(=O)CSc2nnc(C)n2-c2ccccc2)cc1
- cell number change: -21.5%
- AC50 [1]: 16.4 µM [falling, single point]

SMILES: CC(=O)N1CCC(C(=O)NC2CCCc3c2cnn3-c2cc(F)cc(F)c2)CC1 (configuration not stated)
- cell number change: 43.2%
- AC50 [2]: 8.2 µM [rising, partial curve]
- AC50 [1]: 29.1 µM [rising, single point]

SMILES: CCOC(=O)C(C(C)=O)=C1SC2CS(=O)(=O)CC2S1 (configuration not stated)
- cell number change: 0.612%
- AC50 [1]: 0.00517 µM [falling, full curve]

SMILES: COc1ccc(Cl)cc1NC(=O)CN(C)Cc1cccs1
- cell number change: 1.59%
- AC50 [1]: 6.51 µM [falling, single point]

SMILES: CC(C)CNC(=S)NNC(=O)c1ccccc1OC(F)F
- cell number change: 49.7%
- AC50 [2]: 1.16 µM [rising, full curve]

SMILES: Cc1ccc(N(C(=O)Cc2cccs2)C(C(=O)NC2CCCC2)c2ccncc2)cc1 (configuration not stated)
- cell number change: -18.4%
- AC50 [1]: 29.1 µM [falling, single point]

SMILES: CC(=O)Nc1ccc(C(=O)Nc2nc(-c3cc(C)n(Cc4ccccc4)c3C)cs2)cc1
- cell number change: 21.2%
- AC50 [1]: 0.291 µM [rising, partial curve, poor fit]

SMILES: Cc1ccc(O)c(NC(=O)c2cc(-c3cccs3)on2)c1
- cell number change: 30.4%
- AC50 [2]: 20.6 µM [rising, partial curve, poor fit]

SMILES: NC(=O)c1ccc(Oc2ccc3c(c2)CCC3)c([N+](=O)[O-])c1
- AC50 [1]: 3.66 µM [falling, partial curve]

SMILES: CN(C)N(Cc1ccccc1)C(=O)C(O)(c1ccccc1)c1ccccc1
- cell number change: -11.6%
- AC50 [1]: 16.4 µM [falling, single point]

SMILES: COc1ccccc1N1CC(O)=C(c2nc3ccccc3s2)C1=N
- cell number change: -23.1%
- AC50 [1]: 0.58 µM [rising, single point]

SMILES: CCCCCN(C(=O)CCC(=O)OCCOc1cccc(Cl)c1)c1c(N)n(CCCC)c(=O)[nH]c1=O
- cell number change: 25%
- AC50 [2]: 4.11 µM [rising, full curve, poor fit]
- AC50 [1]: 6.51 µM [falling, single point]

SMILES: Cc1cc(C)c(OCC(=O)OCC(=O)N2CCc3ccccc3C2)c(C)c1
- AC50 [1]: 29.1 µM [rising, single point]

SMILES: CC(C)(C)c1ccc(-c2nc(NCc3cccnc3)c3ccccc3n2)cc1
- cell number change: -38.2%
- AC50 [2]: 16.4 µM [falling, single point]
- AC50 [1]: 7.31 µM [falling, partial curve]

SMILES: CCc1cccc(C)c1NS(=O)(=O)c1cc(Br)cnc1N
- cell number change: 6.6%
- AC50 [1]: 29.1 µM [rising, single point]

SMILES: C/C=C/c1ccc(OCC(O)CN(C)Cc2ccc(SC)cc2)c(OC)c1 (configuration not stated)
- cell number change: -29%
- AC50 [1]: 23.1 µM [falling, single point]

SMILES: C=CCc1cc(/C=C2/NC(=O)N(CC)C2=O)cc(OCC)c1OCc1ccc(C(=O)O)cc1
- cell number change: 30.5%
- AC50 [2]: 6.51 µM [rising, partial curve]
- AC50 [1]: 7.31 µM [rising, partial curve]

SMILES: CN(C)C(CNC(=O)c1ccc2ccccc2c1)c1ccco1 (configuration not stated)
- cell number change: 57%

SMILES: CN(CC(=O)Nc1ccc(F)c(F)c1F)C(=O)C1CC(=O)N(C2CCCC2)C1 (configuration not stated)
- cell number change: -63.1%
- AC50 [2]: 8.2 µM [falling, partial curve]

SMILES: COCc1cc(C)nc2sc(C(=O)N3CCCCC3)c(N)c12
- AC50 [1]: 0.184 µM [rising, full curve, poor fit]

SMILES: O=C(NCc1ccco1)Nc1ccc(Br)cc1Cl
- AC50 [2]: 4.11 µM [rising, single point]

SMILES: C/C(=N\NC(=O)c1nnn(-c2nonc2N)c1C)c1ccc(-c2ccccc2)cc1
- cell number change: 5.41%

SMILES: O=C(COC(=O)COc1ccc(Cl)cc1)Nc1ccc2c(c1)OCCO2
- cell number change: -41.5%
- AC50 [2]: 18.4 µM [falling, single point]
- AC50 [1]: 18.4 µM [rising, single point]

SMILES: COC(=O)[C@H](Cc1ccccc1)NC(=O)Nc1ccc(C)cc1
- cell number change: -23.9%
- AC50 [1]: 4.61 µM [falling, full curve, poor fit]

SMILES: COc1cccc(N2CCN(C(=O)CN(c3ccc(C)cc3)S(=O)(=O)c3c(C)n[nH]c3C)CC2)c1
- cell number change: 10.7%

SMILES: CC(=O)c1ccc(NC(=O)C2CC(c3ccc(F)cc3)=NO2)cc1 (configuration not stated)
- cell number change: -6.69%
- AC50 [1]: 0.58 µM [rising, full curve, poor fit]

SMILES: COC(=O)c1ccc(COC(=O)CNC(=O)c2ccc(C)s2)cc1
- cell number change: -14.2%
- AC50 [1]: 29.1 µM [falling, single point]
